Assays:
[1] = system: MDA-MB-231 cells; experiment: CCK-8 antiproliferative assay, MDA-MB-231; assay type: cell-based; settings: Homo sapiens, cell viability (CCK-8), 48 h
Experimental: (§1) To evaluate the anticancer potential of the synthesized compounds, a panel of six human and murine cancer cell lines representing different tissue origins was selected, including MCF-7 (human breast adenocarcinoma), MDA-MB-231 (human triple-negative breast cancer), A549 (human non-small cell lung cancer), HeLa (human cervical cancer), A375 (human melanoma), and B16-F10 (murine melanoma) (Table 2). The antiproliferative activity of compounds 3a–3p was assessed using the standard CCK-8 assay after 48 h of drug treatment at varying concentrations. DMSO was used as the vehicle control, and all experiments were performed in triplicate to ensure reproducibility.
(§2) Human breast cancer cells (MCF-7), human lung cancer cells (A549), human cervical cancer cells (HeLa), human triple-negative breast cancer cells (MDA-MB-231), and human malignant melanoma cells (A375) were cultured in DMEM. Mouse melanoma cells (B16F10) were maintained in RPMI-1640 medium. […]
(§3) The cytotoxicity of the test compounds was evaluated against MCF-7, A549, HeLa, MDA-MB-231, A375, and B16F10 using the CCK-8 assay. […] The CCK-8 solution was added and incubated for another 1 h, and then, the absorbance was detected with a microplate reader at a wavelength of 450 nm. The IC50 values were calculated by nonlinear regression analysis using GraphPad Prism 8.0.2. […]

[2] = system: A549 cells; experiment: CCK-8 antiproliferative assay, A549; assay type: cell-based; settings: Homo sapiens, cell viability (CCK-8), 48 h
Experimental: as §1, §2, §3

[3] = system: HeLa cells; experiment: CCK-8 antiproliferative assay, HeLa; assay type: cell-based; settings: Homo sapiens, cell viability (CCK-8), 48 h
Experimental: as §1, §2, §3

[4] = system: B16-F10 cells; experiment: CCK-8 antiproliferative assay, B16-F10; assay type: cell-based, murine; settings: Mus musculus, cell viability (CCK-8), 48 h
Experimental: as §1, §2, §3

## COc1cc2c(c(OC)c1OC)-c1ccc(OC)c(=O)cc1[C@@H](NC(C)=O)CC2 [Colchicine, reference compound]
[1]
  IC50: 480 ± 30 nM
[2]
  IC50: 82 ± 6 nM
[3]
  IC50: 27 ± 2 nM
[4]
  IC50: 13 ± 1 nM
